Assay results taken from doi:10.1101/2020.06.11.146753.
These are yes or no findings as the source states them, for the method shown. Binding seen in cells or lysates may run through a third protein. Binding calls can cover weak binding; strength is not graded here. Sequences can lack the tags named with a protein.

Target: T1, Bt1762 (SusD), C-terminal His6 tag, from the B. theta Bt1762-his strain (Bacteroides thetaiotaomicron VPI-5482) (UniProt Q8A6W4)
T1 sequence (chain, lipid anchor (lipoprotein)): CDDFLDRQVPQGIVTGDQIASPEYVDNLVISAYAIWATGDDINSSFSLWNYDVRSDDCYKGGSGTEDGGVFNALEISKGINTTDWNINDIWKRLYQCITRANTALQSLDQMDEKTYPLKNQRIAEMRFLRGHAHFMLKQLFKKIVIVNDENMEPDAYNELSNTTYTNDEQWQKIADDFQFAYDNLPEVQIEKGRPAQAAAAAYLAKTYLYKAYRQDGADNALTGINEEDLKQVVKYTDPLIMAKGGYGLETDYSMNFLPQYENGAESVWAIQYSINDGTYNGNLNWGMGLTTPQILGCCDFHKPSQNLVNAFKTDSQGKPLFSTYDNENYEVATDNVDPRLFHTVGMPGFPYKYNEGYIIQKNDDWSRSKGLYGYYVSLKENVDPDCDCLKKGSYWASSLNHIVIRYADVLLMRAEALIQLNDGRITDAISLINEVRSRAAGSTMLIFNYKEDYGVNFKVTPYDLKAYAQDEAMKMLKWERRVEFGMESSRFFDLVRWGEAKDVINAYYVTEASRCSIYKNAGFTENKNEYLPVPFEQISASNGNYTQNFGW
Experiment: co-purification by IMAC, SDS-PAGE

binding, binds:
Bt1763 (SusC) TonB box mut (TonB box mutated to all-Ala) (from UniProt Q8A6W3)
Bt1763 (SusC) ΔTonB box (from UniProt Q8A6W3)
Bt1763 (SusC) ΔNTE (N-terminal extension deleted, Ton box intact) (from UniProt Q8A6W3)
